## Results from one PubChem assay

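A panel of P. falciparum strains inside erythrocytes is exposed to compounds for three days, then a DNA-binding dye reports the amount of parasite DNA.
Each compound was titrated across a series from about 0.000037 to 29 µM.
The number is the fitted AC50, the concentration giving a half-maximal change in signal; a lower value means higher potency, whether the curve shows a decrease or an increase.
Calls follow the curve class and fit quality: every row here is inconclusive, covering signal-raising curves and weak, poorly fitted, partial or highest-dose-only inhibition curves.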

Values are in µM.
All entries here are filed as inconclusive.
Only part of the assay is shown, chiefly results filed as inconclusive.
Potencies fitted to partial, single-point or poorly fitting curves are rough.
Some entries filed as inconclusive have a full curve.

structure,tested on / at,Potency (µM),remark
OC(CN1CCC(Cc2ccc(F)cc2)CC1)c1ccc(Cl)cc1 (centres undefined),CP238,1.122,"inhibitor, single point"
OC(CN1CCC(Cc2ccc(F)cc2)CC1)c1ccc(Cl)cc1 (centres undefined),CP265,1,"inhibitor, full curve, poor fit"
OC(CN1CCC(Cc2ccc(F)cc2)CC1)c1ccc(Cl)cc1 (centres undefined),DFO2036,1.122,"inhibitor, single point"
OC(CN1CCC(Cc2ccc(F)cc2)CC1)c1ccc(Cl)cc1 (centres undefined),CP305,1.51,"inhibitor, partial curve, poor fit"
OC(CN1CCC(Cc2ccc(F)cc2)CC1)c1ccc(Cl)cc1 (centres undefined),CP194,1.694,"inhibitor, full curve"
OC(CN1CCC(Cc2ccc(F)cc2)CC1)c1ccc(Cl)cc1 (centres undefined),CP217,1,"inhibitor, single point"
OC(CN1CCC(Cc2ccc(F)cc2)CC1)c1ccc(Cl)cc1 (centres undefined),CP185,3.548,"inhibitor, single point"
OC(CN1CCC(Cc2ccc(F)cc2)CC1)c1ccc(Cl)cc1 (centres undefined),CP250,1.585,"inhibitor, full curve, poor fit"
OC(CN1CCC(Cc2ccc(F)cc2)CC1)c1ccc(Cl)cc1 (centres undefined),FAB9,3.162,"inhibitor, full curve"
OC(CN1CCC(Cc2ccc(F)cc2)CC1)c1ccc(Cl)cc1 (centres undefined),CP247,0.8913,"inhibitor, full curve"
OC(CN1CCC(Cc2ccc(F)cc2)CC1)c1ccc(Cl)cc1 (centres undefined),CP291,1.901,"inhibitor, partial curve, poor fit"
OC(CN1CCC(Cc2ccc(F)cc2)CC1)c1ccc(Cl)cc1 (centres undefined),CP268,2.133,"inhibitor, partial curve, poor fit"
OC(CN1CCC(Cc2ccc(F)cc2)CC1)c1ccc(Cl)cc1 (centres undefined),CP269,1.694,"inhibitor, full curve"
OC(CN1CCC(Cc2ccc(F)cc2)CC1)c1ccc(Cl)cc1 (centres undefined),CP215,1.51,"inhibitor, full curve"
OC(CN1CCC(Cc2ccc(F)cc2)CC1)c1ccc(Cl)cc1 (centres undefined),CP297,2.133,"inhibitor, full curve"
OC(CN1CCC(Cc2ccc(F)cc2)CC1)c1ccc(Cl)cc1 (centres undefined),CP203,1.51,"inhibitor, full curve"
[Hg+][c]1ccccc1,CP256,12.59,"inhibitor, single point"
[Hg+][c]1ccccc1,CP266,19.01,"inhibitor, single point"
[Hg+][c]1ccccc1,TAB109,12.59,"inhibitor, single point"
[Hg+][c]1ccccc1,N140,10,"inhibitor, single point"
[Hg+][c]1ccccc1,AS120,10,"inhibitor, single point"
[Hg+][c]1ccccc1,CP262,19.01,"inhibitor, single point"
[Hg+][c]1ccccc1,CP329,12,"inhibitor, single point"
[Hg+][c]1ccccc1,CP291,13.46,"inhibitor, single point"
[Hg+][c]1ccccc1,AA1029,10,"inhibitor, single point"
[Hg+][c]1ccccc1,CP203,15.1,"inhibitor, single point"
[Hg+][c]1ccccc1,ICS,2.512,"inhibitor, single point"
[Hg+][c]1ccccc1,CP247,17.78,"inhibitor, single point"
[Hg+][c]1ccccc1,CP211,15.1,"inhibitor, single point"
[Hg+][c]1ccccc1,ATS189,12.59,"inhibitor, single point"
[Hg+][c]1ccccc1,DIV30,13.46,"inhibitor, single point"
[Hg+][c]1ccccc1,CP194,15.1,"inhibitor, single point"
[Hg+][c]1ccccc1,CP250,17.78,"inhibitor, single point"
[Hg+][c]1ccccc1,CP265,10,"inhibitor, single point"
[Hg+][c]1ccccc1,ATS95,17.78,"inhibitor, single point"
[Hg+][c]1ccccc1,CP201,13.46,"inhibitor, single point"
[Hg+][c]1ccccc1,CP252,11.22,"inhibitor, single point"
[Hg+][c]1ccccc1,CP315,19.01,"inhibitor, single point"
[Hg+][c]1ccccc1,3D7,11.22,"inhibitor, single point"
[Hg+][c]1ccccc1,CP325,12,"inhibitor, single point"
[Hg+][c]1ccccc1,CP297,19.01,"inhibitor, single point"
c1ccc2c(c1)OCC(CN1CCCCC1)O2 (centres undefined),W2,12,"inhibitor, partial curve, poor fit"
c1ccc2c(c1)OCC(CN1CCCCC1)O2 (centres undefined),CP237,8.912,"inhibitor, single point"
CCCN(CCc1cccs1)[C@H]1CCc2c(O)cccc2C1,CP192,13.46,"inhibitor, single point"
CCCN(CCc1cccs1)[C@H]1CCc2c(O)cccc2C1,CP250,10,"inhibitor, single point"
CCCN(CCc1cccs1)[C@H]1CCc2c(O)cccc2C1,FAB9,12.59,"inhibitor, single point"
CCCN(CCc1cccs1)[C@H]1CCc2c(O)cccc2C1,CP201,10.69,"inhibitor, partial curve"
CCCN(CCc1cccs1)[C@H]1CCc2c(O)cccc2C1,CP315,15.1,"inhibitor, single point"
c1ccc2c(c1)OCC(C1=NCCN1)O2 (centres undefined),CP260,7.943,"inhibitor, partial curve"
c1ccc2c(c1)OCC(C1=NCCN1)O2 (centres undefined),7G8,10,"inhibitor, single point"
c1ccc2c(c1)OCC(C1=NCCN1)O2 (centres undefined),DIV14,8.492,"inhibitor, partial curve"
c1ccc2c(c1)OCC(C1=NCCN1)O2 (centres undefined),DIV17,5.358,"inhibitor, partial curve, poor fit"

For reference, 4 entries once more:

structure	tested on / at	Potency (µM)	remark
CCCN(CCc1cccs1)[C@H]1CCc2c(O)cccc2C1	FAB9	12.59	inhibitor, single point
c1ccc2c(c1)OCC(C1=NCCN1)O2 (centres undefined)	DIV14	8.492	inhibitor, partial curve
[Hg+][c]1ccccc1	DIV30	13.46	inhibitor, single point
OC(CN1CCC(Cc2ccc(F)cc2)CC1)c1ccc(Cl)cc1 (centres undefined)	CP268	2.133	inhibitor, partial curve, poor fit

The results are deposited in PubChem (AID504749; NCATS, 2011).